Data taken from paper PMC9685459.

Chains of the proteins cited; added tags and fusions are not shown. Residues count along the entry.
UniProt Q13308, 31-1070: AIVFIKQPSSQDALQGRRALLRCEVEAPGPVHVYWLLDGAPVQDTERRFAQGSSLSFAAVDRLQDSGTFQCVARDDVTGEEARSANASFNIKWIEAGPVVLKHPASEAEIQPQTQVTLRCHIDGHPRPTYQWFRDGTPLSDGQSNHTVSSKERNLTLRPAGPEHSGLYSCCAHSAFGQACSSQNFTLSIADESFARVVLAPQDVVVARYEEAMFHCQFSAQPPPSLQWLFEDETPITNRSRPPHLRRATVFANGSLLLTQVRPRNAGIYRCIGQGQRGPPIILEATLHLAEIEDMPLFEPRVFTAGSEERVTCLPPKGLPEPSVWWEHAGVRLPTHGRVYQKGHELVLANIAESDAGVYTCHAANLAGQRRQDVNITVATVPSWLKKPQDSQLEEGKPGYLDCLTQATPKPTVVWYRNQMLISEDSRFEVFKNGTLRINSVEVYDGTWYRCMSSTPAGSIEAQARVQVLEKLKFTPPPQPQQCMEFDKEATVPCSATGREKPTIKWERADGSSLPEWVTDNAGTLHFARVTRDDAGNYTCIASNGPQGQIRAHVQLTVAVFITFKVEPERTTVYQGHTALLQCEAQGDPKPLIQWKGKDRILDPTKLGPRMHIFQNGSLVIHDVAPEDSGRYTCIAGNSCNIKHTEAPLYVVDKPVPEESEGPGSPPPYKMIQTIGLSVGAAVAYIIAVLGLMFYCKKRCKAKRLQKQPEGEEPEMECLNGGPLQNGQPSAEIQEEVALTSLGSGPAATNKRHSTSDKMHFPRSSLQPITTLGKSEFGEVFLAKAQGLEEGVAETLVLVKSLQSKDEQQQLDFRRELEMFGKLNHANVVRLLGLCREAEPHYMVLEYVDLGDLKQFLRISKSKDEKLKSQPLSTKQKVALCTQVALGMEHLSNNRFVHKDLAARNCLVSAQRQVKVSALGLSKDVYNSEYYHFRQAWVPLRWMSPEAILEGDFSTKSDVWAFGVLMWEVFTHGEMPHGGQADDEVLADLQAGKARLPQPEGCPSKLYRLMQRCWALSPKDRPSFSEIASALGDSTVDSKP

Biological target: PTK7 (cell-surface receptor on CEM and HeLa cells) (UniProt Q13308)
Test: cell imaging (CLSM) and flow cytometry
Conditions: live-cell incubation (culture medium, 37 °C, 5% CO2, 2 h stated for the HeLa uptake assay of nanoclusters), protein on the cell surface, label: 5' FAM on T, single-stranded DNA

| Sequence | binding result (no signal on PTK7-negative Ramos cells) | binding result (no obvious fluorescence) |
| --- | --- | --- |
| TTTTTATCTAACTGCTGCGCCGCCGGGAAAATACTGTACGGTTAGA [F-sgc8 (FAM-modified sgc8)] | binds |  |
| TTTTTGCGAGTATGTTGTCAACTGCCTTCCACTCTGATATAAACCA [F-Lib (FAM-modified library DNA, single printed sequence)] |  | no binding |

The exact form of at least one protein or probe is not confirmed. Where cells or extracts were used, other partners may take part. Negatives hold for the conditions tested. At least one verdict was read from the data and is not stated in words by the source.
